Changes are numbered by the printed parent chain. These are yes or no findings as the source states them, for the method shown. Some entries that bind do so weakly or less than the wild type.
How the values were obtained:
[1] = molecular target: T1, integrin αvβ1 expressed on CHO cells (UniProt P06756 31-1048; P05556 21-798, limits assumed); assay: flow cytometry titration (MFI) on AvB1 CHO cells
[2] = molecular target: T2, integrin αvβ3 expressed on CHO cells (UniProt P06756 31-1048; P05106 27-788, limits assumed); assay: flow cytometry titration (MFI) on AvB3 CHO cells
[3] = molecular target: T3, integrin αvβ5 expressed on CHO cells (UniProt P06756 31-1048; P18084 24-799, limits assumed); assay: flow cytometry titration (MFI) on AvB5 CHO cells
[4] = molecular target: T4, integrin αvβ6 expressed on CHO cells (UniProt P06756 31-1048; P18564 22-788, limits assumed); assay: flow cytometry titration (MFI) on AvB6 CHO cells
[5] = molecular target: T5, integrin αvβ8 expressed on CHO cells (UniProt P06756 31-1048; P26012 43-769, limits assumed); assay: flow cytometry titration (MFI) on AvB8 CHO cells
[6] = molecular target: Recombinant integrin αv heterodimer (e.g., integrin-αvβ1); assay: bio-layer interferometry (Octet), titration series
[7] = molecular target: T4, integrin αvβ6 expressed on CHO cells; assay: flow cytometry titration on integrin CHO cells, signal normalised to 100; x axis 0.01-1000 without unit
[8] = molecular target: T5, integrin αvβ8 expressed on CHO cells; assay: as above
[9] = molecular target: T1, integrin αvβ1 expressed on CHO cells; assay: as above
[10] = molecular target: T2, integrin αvβ3 expressed on CHO cells; assay: as above
[11] = molecular target: T3, integrin αvβ5 expressed on CHO cells; assay: as above
[12] = molecular target: T6, recombinant human integrin-αvβ1 (human, UniProt P06756 31-992; P05556 21-728, limits assumed); assay: ELISA-type titration (Abs 450 nm) on recombinant integrin-αvβ1; panel titled 'Human', legend paragraph 77 says mouse; target follows the panel title and Table 3
T6 construct: also called Recombinant Human Integrins

The chains behind the UniProt entries cited, without tags or fusion partners. Where a name states a change or a piece, a line headed by the entry shows the natural chain unless it says otherwise.
UniProt P06756: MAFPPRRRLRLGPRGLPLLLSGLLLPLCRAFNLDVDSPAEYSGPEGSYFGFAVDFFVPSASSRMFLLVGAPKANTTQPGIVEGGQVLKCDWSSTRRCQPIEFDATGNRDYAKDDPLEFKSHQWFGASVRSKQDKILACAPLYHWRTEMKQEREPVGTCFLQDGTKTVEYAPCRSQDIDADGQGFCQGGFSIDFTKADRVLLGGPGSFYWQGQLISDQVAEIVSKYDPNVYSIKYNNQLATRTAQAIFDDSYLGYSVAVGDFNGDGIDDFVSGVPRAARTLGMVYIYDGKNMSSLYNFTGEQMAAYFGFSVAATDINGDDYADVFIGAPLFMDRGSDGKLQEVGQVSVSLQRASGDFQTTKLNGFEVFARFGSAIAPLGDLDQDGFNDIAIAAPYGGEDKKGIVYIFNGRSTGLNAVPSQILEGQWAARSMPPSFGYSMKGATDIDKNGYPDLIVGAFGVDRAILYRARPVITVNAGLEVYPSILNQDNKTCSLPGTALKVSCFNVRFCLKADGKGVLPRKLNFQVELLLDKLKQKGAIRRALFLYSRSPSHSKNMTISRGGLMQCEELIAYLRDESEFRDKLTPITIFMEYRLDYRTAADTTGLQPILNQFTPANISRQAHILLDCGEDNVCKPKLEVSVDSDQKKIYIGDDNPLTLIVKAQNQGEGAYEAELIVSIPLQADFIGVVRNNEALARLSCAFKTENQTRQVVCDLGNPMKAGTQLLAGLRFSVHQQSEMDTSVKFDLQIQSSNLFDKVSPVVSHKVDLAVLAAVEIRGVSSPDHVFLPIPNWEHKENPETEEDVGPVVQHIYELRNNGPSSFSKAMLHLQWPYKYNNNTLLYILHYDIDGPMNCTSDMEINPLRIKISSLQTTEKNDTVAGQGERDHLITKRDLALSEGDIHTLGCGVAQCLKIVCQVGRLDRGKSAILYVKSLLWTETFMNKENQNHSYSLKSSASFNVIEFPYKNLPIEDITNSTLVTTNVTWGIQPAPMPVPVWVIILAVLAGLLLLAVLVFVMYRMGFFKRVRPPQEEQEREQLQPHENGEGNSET

[13] = molecular target: T1, integrin αvβ1 expressed on CHO cells; assay: flow cytometry titration on integrin-αvβ1 CHO cells
[14] = molecular target: T1, integrin αvβ1 expressed on CHO cells; assay: flow cytometry on AvB1 CHO cells after freeze-thaw, each group normalised to its own untreated sample; no control IgG in this panel
[15] = molecular target: T1, integrin αvβ1 expressed on CHO cells; assay: flow cytometry, Fab on integrin-αvβ1 CHO cells
[16] = molecular target: T1, integrin αvβ1 expressed on CHO cells; assay: flow cytometry, 10404 Fab on integrin-αvβ1 CHO cells

Measured: binding

B1: IgG clone 10392, hG1/hk (pSCSTa-hG1 (10392) heavy chain, pSCSTa-hK (10392) light chain) (antibody, V domains shown)
VH: EVQLVESGGGLVQPGGSLRLSCAASGFNIYYSSIHWVRQAPGKGLEWVASISSSSGSTSTYADSVKGRFTISADTSKNTAYLQMNSLRAEDTAVYYCARSYYGGGYPYALDYWGQGTLVTVSS
VL: DIQMTQSPSSLSASVGDRVTITCRASQSVSSAVAWYQQKPGKAPKLLIYSASSLYSGVPSRFSGSRSGTDFTLTISSLQPEDFATYYCQQYFGGLITFGQGTKVEIKR
notes: Full-length human IgG1/kappa made in Expi293 cells
binds: [1] | [2] | [3] | [4] | [5] | [6] | [7] | [8] | [9] | [10] | [11] | [12]

B2: IgG 11867 (antibody, V domains shown)
VH: EVQLVESGGGLVQPGGSLRLSCAASGFDFDSYAIHWVRQAPGKGLEWVAYFYPGHDYSTYADSVKGRFTISADTSKNTAYLQMNSLRAEDTAVYYCARPSPYFSWHQAMDYWGQGTLVTVSS
VL: B1 VL with Y91A, F92T, G94S, L95E, I96V
notes: also called 11867 hG1
binds: [1] | [2] | [3] | [4] | [5] | [13] | [14]

B3: 10404 hG1 LALA PG/hk (antibody, V domains shown)
VH: EVQLVESGGGLVQPGGSLRLSCAASGFNLYSSSIHWVRQAPGKGLEWVAYIYPSYGYTSTYADSVKGRFTISADTSKNTAYLQMNSLRAEDTAVYYCARPAPYYSWYPAMDYWGQGTLVTVSS
VL: B1 VL with Y91A, F92S, G94S, L95P, I96F
notes: not shown: human IgG1 constant region with 'LALA PG' changes
binds: [12]

B4: 10404 hG4/hk (antibody, V domains shown)
VH: B3 VH
VL: B1 VL with Y91A, F92S, G94S, L95P, I96F
notes: the IgG4 constant region used is not specified; not shown: human IgG4 constant region ('hG4')
binds: [12]

B5: IgG clone 10404, hG1/hk (pSCSTa-hG1 (10404) heavy chain, pSCSTa-hK (10404) light chain) (antibody, V domains shown)
VH: B3 VH
VL: B1 VL with Y91A, F92S, G94S, L95P, I96F
notes: as for B1
binds: [6] | [7] | [8] | [9] | [10] | [11] | [12]

B6: 11867 hG4 (antibody, human IgG4, V domains shown)
VH: B2 VH
VL: DIQMTQSPSSLSASVGDRVTITCRASQSVSSAVAWYQQKPGKAPKLLIYSASSLYSGVPSRFSGSRSGTDFTLTISSLQPEDFATYYCQQATGSEVTFGQGTKVEIK
binds: [14]

B7: 11867 mG1 (antibody, mouse IgG1, V domains shown)
VH: B2 VH
VL: B6 VL
binds: [14]

B8: Fab 10404 (Fab, V domains shown)
VH: B3 VH
VL: B6 VL with T92S, E95P, V96F
binds: [15] | [16]

B9: 11867 m2a (antibody, mouse IgG2a, V domains shown)
VH: B2 VH
VL: B6 VL
binds: [14]

B10: 11867 m2a LLPG (antibody, mouse IgG2a, V domains shown)
VH: B2 VH
VL: B6 VL
binds: [14]

From patent US20240158510A1 (GOVERNING COUNCIL OF THE UNIVERSITY OF TORONTO, published 2024)
